# In patent US8183228B2, “Anticoagulant antithrombotic dual inhibitors comprising a biotin label” (MSD OSS B.V. Netherlands, priority 2005, dated 2012):
# Structures can show the parent of a compound that is named as a salt. For some assays here: At least one structure is not confirmed: it was looked up by name or label, or the drawing left a doubt. Some entries share one result that the patent states for a list of compounds.
# Assays:
# [1] = tested on: collagen induced platelet aggregation; experiment: In vivo neutralization: collagen induced platelet aggregation (thrombocytopenia) model; settings: guinea pig, 4 hours after administration, without avidin
# Protocol: 4. In Vivo Neutralization of the Antithrombotic Activity
# An intravascular infusion of a collagen suspension induces platelet aggregation and causes transient thrombocytopenia in rats. This test is used to evaluate the influence of a test compound on the severity of thrombocytopenia induced by collagen in rats.
# In the first experiment male guinea pigs were s.c. treated with compound 10 at a dose of 75 nmol/kg or vehicle at 4 hours before collagen infusion. In a second experiment compounds 12 and 17 were s.c. administered at a dose of 100 nmol/kg at the same time-point. Male guinea pigs were anaesthetized by i.m. administration of Ketamine+Sedamun (90+10 mg/kg, respectively). After 15 minutes one of the common carotid arteries was dissected free and cannulated with a PE 50 cannula (Clay Adams). Two blood samples of 0.5 mL were collected in plastic vials containing 25 μL 0.20 M Na2EDTA solution. […] Then the animals were killed with euthasate after which the number of platelets per sample were counted with a Sysmex blood cell counter model KX-21. […]
# After counting the number of platelets in the collected blood samples the decreased number of platelets is calculated by dividing the mean platelet number of the blood samples obtained at t=85 and 95 seconds by the mean value of the blood samples obtained at t=0. […]
# [2] = Pharmacokinetics after s.c. administration in rat (plasma anti-Xa activity); assay type: in vivo; settings: mean ± s.e.m.
# Protocol: The pharmacokinetic properties of compounds 10, 12, 17 and 27 were studied in male Wistar rats of 300-400 gr. The rats were anaesthetized by inhalation of a mixture of O2N2O/isoflurane, after which the right jugular vein was cannulated. The next day rats were treated s.c. with doses of 100 or 500 nmol/kg. After s.c. administration, blood was sampled at several time intervals. Then the blood was centrifuged after which the plasma was siphoned off and stored at −20° C. until use. The concentration of the tested compound was measured amidolytically with S2222 (Chromogenix, Chromogenics Ltd, Molndal, Sweden) by determination of the anti-Xa activity based on the method of Teien and Lie in the obtained plasma samples against a calibration curve which was made of the stock solution of the tested compound itself. (Teien A N, Lie M. Evaluation of an amidolytic heparin assay method increased sensitivity by adding purified antithrombin III. Thromb. Res. 1977, 10: 399-410). The concentration in the samples was expressed in nmol/mL and the kinetic parameters were calculated with the noncompartment model of WinNonlin. (FIGS. 6 and 7)
SMILES,"% inhibition ([1]; 75 nmol/kg s.c., listed as compound 10, sodium salt)","% inhibition ([1]; 100 nmol/kg s.c., listed as compound 12, sodium salt)",Cl ([2]; 100 nmol/kg) [mL/min/kg],Vz ([2]; 100 nmol/kg) [L/kg],Cl ([2]; 500 nmol/kg) [mL/min/kg],Vz ([2]; 500 nmol/kg) [L/kg]
"CO[C@H]1O[C@H](COS(=O)(=O)O)[C@@H](O[C@@H]2O[C@@H](C(=O)O)[C@@H](O[C@H]3O[C@H](COS(=O)(=O)O)[C@@H](O[C@@H]4O[C@H](C(=O)O)[C@@H](O[C@H]5O[C@H](COS(=O)(=O)O)[C@@H](OCCOCCOCCOCCNC(=O)[C@H](CCCCNC(=O)CCCC[C@@H]6SC[C@@H]7NC(=O)N[C@@H]76)NC(=O)COCCOCCOCCOCCNC(=O)c6cccc(S(=O)(=O)N[C@@H](Cc7ccc(OCCCCC8CCNCC8)cc7)C(=O)O)c6)[C@H](OC)[C@H]5OC)[C@H](OC)[C@H]4OC)[C@H](OS(=O)(=O)O)[C@H]3OS(=O)(=O)O)[C@H](OC)[C@H]2OC)[C@H](OS(=O)(=O)O)[C@H]1OS(=O)(=O)O [Compound 10, sodium salt]",more than 66%,–,–,–,–,–
"CO[C@H]1O[C@H](COS(=O)(=O)O)[C@@H](O[C@@H]2O[C@@H](C(=O)O)[C@@H](O[C@H]3O[C@H](COS(=O)(=O)O)[C@@H](O[C@@H]4O[C@H](C(=O)O)[C@@H](O[C@H]5O[C@H](COS(=O)(=O)O)[C@@H](OCCOCCOCCOCCNC(=O)COCCOCCOCCOCCNC(=O)c6cccc(S(=O)(=O)N[C@@H](Cc7ccc(OCCCCC8CCNCC8)cc7)C(=O)O)c6)[C@H](OC)[C@H]5OC)[C@H](OC)[C@H]4OC)[C@H](OS(=O)(=O)O)[C@H]3OS(=O)(=O)O)[C@H](OC)[C@H]2OC)[C@H](OS(=O)(=O)O)[C@H]1OS(=O)(=O)O [Compound 12, sodium salt, reference compound]",–,more than 66%,0.1 ± 0.0033,0.084 ± 0.002,0.112 ± 0.005,0.09 ± 0.005
"CO[C@H]1O[C@H](COS(=O)(=O)O)[C@@H](O[C@@H]2O[C@@H](C(=O)O)[C@@H](O[C@H]3O[C@H](COS(=O)(=O)O)[C@@H](O[C@@H]4O[C@H](C(=O)O)[C@@H](O[C@H]5O[C@H](COS(=O)(=O)O)[C@@H](OCCOCCOCCOCCNC(=O)[C@H](CCCCNC(=O)C[C@H](NC(=O)CCCC[C@@H]6SC[C@@H]7NC(=O)N[C@@H]76)C(=O)O)NC(=O)COCCOCCOCCOCCNC(=O)c6cccc(S(=O)(=O)N[C@@H](Cc7ccc(OCCCCC8CCNCC8)cc7)C(=O)O)c6)[C@H](OC)[C@H]5OC)[C@H](OC)[C@H]4OC)[C@H](OS(=O)(=O)O)[C@H]3OS(=O)(=O)O)[C@H](OC)[C@H]2OC)[C@H](OS(=O)(=O)O)[C@H]1OS(=O)(=O)O [Compound 17, sodium salt]",–,–,0.105 ± 0.005,0.095 ± 0.006,–,–
